Results are given in words; binding and its absence hold for the method and conditions named. Some binding calls cover weakened binding; strength is not graded here. Tags and fused reporters may be left off the sequences shown.
Experiments:
fractalkine (FKN) [1] = biological target: fractalkine (FKN) (UniProt P78423); assay: ELISA binding assay (FIG. 12)
fractalkine (FKN) [2] = biological target: fractalkine (FKN) (UniProt P78423); assay: ELISA: GST-peptide on FKN coated at 10 ug/ml, anti-GST-HRP

Chains of the proteins cited; added tags and fusions are not shown. Residues count along the entry.
UniProt P78423, residues 25-100: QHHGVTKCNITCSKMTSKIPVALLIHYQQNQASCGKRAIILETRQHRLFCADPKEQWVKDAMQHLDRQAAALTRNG

Binder: LPNDGQCHLENNMYTMSHYY (peptide, not shown: a dimerising Fc or GST) [site 2 peptide from integrin β1 (S2-β1 peptide, β1 275-294), linear, GST fusion]
- binding (fractalkine (FKN) [1]): binds
- binding (fractalkine (FKN) [2]): binds

From patent publication US20180238866A1
